# These are yes or no findings as the source states them, for the method shown. In cells and extracts the contact can be indirect. Some binding calls cover weakened binding; strength is not graded here.
# By UniProt entry, the sequences of proteins in these tests, tags left out. Residues count along the entry.
# UniProt Q96I51, residues 38-464: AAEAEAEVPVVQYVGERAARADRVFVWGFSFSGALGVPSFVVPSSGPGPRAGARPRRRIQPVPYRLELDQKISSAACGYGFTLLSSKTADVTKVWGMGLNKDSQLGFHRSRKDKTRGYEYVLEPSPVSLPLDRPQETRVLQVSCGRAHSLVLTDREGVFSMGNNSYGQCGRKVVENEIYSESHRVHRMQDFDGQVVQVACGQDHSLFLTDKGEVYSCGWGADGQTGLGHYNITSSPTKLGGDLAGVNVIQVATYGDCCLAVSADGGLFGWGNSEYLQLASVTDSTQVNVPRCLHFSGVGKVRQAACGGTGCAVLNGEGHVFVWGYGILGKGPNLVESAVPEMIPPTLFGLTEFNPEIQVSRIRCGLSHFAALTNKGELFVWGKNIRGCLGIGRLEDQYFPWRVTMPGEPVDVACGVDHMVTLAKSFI
# B1: endogenous NME2, P22392 1-152 (protein)
# chain: MANLERTFIAIKPDGVQRGLVGEIIKRFEQKGFRLVAMKFLRASEEHLKQHYIDLKDRPFFPGLVKYMNSGPVVAMVWEGLNVVKTGRVMLGETNPADSKPGTIRGDFCIQVGRNIIHGSDSVKSAEKEISLWFKPEELVDYKSCAHDWVYE
# B2: endogenous NME4 (protein, UniProt O00746 29-187)
# chain: GSGGPSWTRERTLVAVKPDGVQRRLVGDVIQRFERRGFTLVGMKMLQAPESVLAEHYQDLRRKPFYPALIRYMSSGPVVAMVWEGYNVVRASRAMIGHTDSAEAAPGTIRGDFSVHISRNVIHASDSVEGAQREIQLWFQSSELVSWADGGQHSSIHPA
# Experiments:
# [1] = target: endogenous NME1 (human (endogenous in MDA-MB-231T)), P15531; experiment: co-IP; MDA-MB-231T lysate (TEEN buffer: 50 mM Tris pH 7.4, 0.5% NP40, 150 mM NaCl, 5 mM EDTA), 200 µg input; anti-NME1, anti-NME6 or anti-RCC1L on Dynabeads protein G, overnight at 4 °C; Western blot; conditions: remark: other sources report otherwise
# [2] = target: RCC1-like G exchanging factor-like protein (RCC1L) (human (endogenous in MDA-MB-231T)) (UniProt Q96I51); experiment: proximity ligation; in situ PLA (Duolink) on fixed, permeabilized MDA-MB-231T cells (Ctrl) or the clone KI-186-18 stably overexpressing NME6-186-FLAG; confocal microscopy
Binder,binding [1],binding [2]
B1,binds,
B2,,binds

# — PMC8597243
